These are yes or no findings as the source states them, for the method shown. Binding seen in cells or lysates may run through a third protein. These calls come from enrichment with a bait or labelling near it, and not all partners need be listed.
T1: Rps3-TAP (S. cerevisiae) (UniProt P05750)
T1 sequence: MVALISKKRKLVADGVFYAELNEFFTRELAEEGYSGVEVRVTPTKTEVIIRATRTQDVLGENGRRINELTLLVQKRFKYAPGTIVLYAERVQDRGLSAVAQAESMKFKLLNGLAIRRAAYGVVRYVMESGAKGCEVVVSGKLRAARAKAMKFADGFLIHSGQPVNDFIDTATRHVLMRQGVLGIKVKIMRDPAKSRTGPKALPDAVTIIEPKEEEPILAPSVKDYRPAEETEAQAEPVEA

Chains of the proteins cited; added tags and fusions are not shown.
UniProt Q02821: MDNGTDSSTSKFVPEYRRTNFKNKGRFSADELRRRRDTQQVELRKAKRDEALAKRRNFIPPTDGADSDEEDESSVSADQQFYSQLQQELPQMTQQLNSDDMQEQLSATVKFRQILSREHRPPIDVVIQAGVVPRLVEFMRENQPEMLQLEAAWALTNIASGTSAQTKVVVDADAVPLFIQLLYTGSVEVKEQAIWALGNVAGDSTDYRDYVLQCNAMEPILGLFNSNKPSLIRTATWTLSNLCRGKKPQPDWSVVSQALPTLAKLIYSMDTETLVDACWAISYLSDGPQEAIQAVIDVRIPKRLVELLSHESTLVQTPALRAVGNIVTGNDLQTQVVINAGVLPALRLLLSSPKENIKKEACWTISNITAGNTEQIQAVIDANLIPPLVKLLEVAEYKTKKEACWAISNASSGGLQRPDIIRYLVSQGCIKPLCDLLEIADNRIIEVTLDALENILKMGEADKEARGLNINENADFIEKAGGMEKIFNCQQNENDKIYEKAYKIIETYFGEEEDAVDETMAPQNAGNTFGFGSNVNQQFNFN


Target: T1, Rps3-TAP (S. cerevisiae)
Experiment: affinity purification with mass spectrometry; TAP purification from yeast lysate; excised gel bands of the final eluate digested with trypsin and analysed by LC-MS/MS

Molecule | binding
Kap60-3xHA (from UniProt Q02821 1-542) | binds
Kap123 (protein, UniProt P40069 1-1113) MDQQFLSQLEQTLHAITSGVGLKEATKTLQTQFYTQPTTLPALIHILQNGSDDSLKQLAGVEARKLVSKHWNAIDESTRASIKTSLLQTAFSEPKENVRHSNARVIASIGTEELDGNKWPDLVPNLIQTASGEDVQTRQTAIFILFSLLEDFTSSLSGHIDDFLALFSQTINDPSSLEIRSLSAQALNHVSALIEEQETINPVQAQKFAASIPSVVNVLDAVIKADDTMNAKLIFNCLNDFLLLDSQLTGNFIVDLIKLSLQIAVNSEIDEDVRVFALQFIISSLSYRKSKVSQSKLGPEITVAALKVACEEIDVDDELNNEDETGENEENTPSSSAIRLLAFASSELPPSQVASVIVEHIPAMLQSANVFERRAILLAISVAVTGSPDYILSQFDKIIPATINGLKDTEPIVKLAALKCIHQLTTDLQDEVAKFHEEYLPLIIDIIDSAKNIVIYNYATVALDGLLEFIAYDAIAKYLDPLMNKLFYMLESNESSKLRCAVVSAIGSAAFAAGSAFIPYFKTSVHYLEKFIQNCSQIEGMSEDDIELRANTFENISTMARAVRSDAFAEFAEPLVNSAYEAIKTDSARLRESGYAFIANLAKVYGENFAPFLKTILPEIFKTLELDEYQFNFDGDAEDLAAFADSANEEELQNKFTVNTGISYEKEVASAALSELALGTKEHFLPYVEQSLKVLNEQVDESYGLRETALNTIWNVVKSVLLASKVEPESYPKGIPASSYVNADVLAVIQAARETSMGNLSDEFETSMVITVMEDFANMIKQFGAIIIMDNGDSSMLEALCMQVLSVLKGTHTCQTIDIEEDVPRDEELDASETEATLQDVALEVLVSLSQALAGDFAKVFDNFRPVVFGLFQSKSKNKRSSAVGAASELALGMKEQNPFVHEMLEALVIRLTSDKSLEVRGNAAYGVGLLCEYASMDISAVYEPVLKALYELLSAADQKALAAEDDEATREIIDRAYANASGCVARMALKNSALVPLEQTVPALLAHLPLNTGFEEYNPIFELIMKLYQENSPVITNETPRIIEIFSAVFTKENDRIKLEKESTLGREENMERLKQFQTEEMKHKVIELLKYLNTTYNGIVAQNPVLAAVIA | binds
